# PubChem BioAssay AID1347076 (National Center for Advancing Translational Sciences (NCATS), 2019)
# In all, about 400,000 compounds went through this assay and about 13,000 (3.2%) were called active. The inconclusive results got no clear call from the source; some entries with a clear call stand among them for comparison. Calls come from the whole dose curve; as a rule, active = well fitted cell-killing curve with a large enough effect; inconclusive = small, poorly fitted or top-dose-only effect, or effect the other way; inactive = flat fitted curve, though single readings scatter. Potencies of inconclusive entries are doubtful fits and often do not repeat.
# Test: qHTS assay for MDR1-selective chemotherapeutics: Primary screen using the drug-selected MDR subline cells KB-V1; note: nearly all actives have a fitted effect of over 60% in size
# Conditions: KB-V1 MDR cells viability, CellTiter-Glo, 72 h; activity change, negative = cytotoxicity: at 46.1 µM (top of the series)
# Summary of the method: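 Luminescent ATP read-out (CellTiter-Glo, 10 min) measures survival of drug-selected KB-V1 MDR cells after 72 h, 37 degrees C compound exposure. Medium: phenol-red-free DMEM, 10% FBS. Values from fitted concentration-response curves.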
# % is set by controls: 0 for no effect and ±100 for the full control effect; potency is the fitted concentration of half-maximal effect.
SMILES,Potency,"activity change, negative = cytotoxicity"
O=C(N/N=C/c1ccc[nH]1)c1cccc([N+](=O)[O-])c1,"inconclusive: 18.4 µM [rising, single point]",–
Cc1nnc(SCC(=O)NC2CCCc3c2cnn3-c2ccc(F)cc2F)o1 (stereo not drawn),"inconclusive: 18.4 µM [cytotoxic, single point]",–
CC(=O)c1cc2c(cc1NC(=O)CCc1c(C)nc3ncnn3c1C)OCO2,"inconclusive: 14.6 µM [cytotoxic, partial curve]",–
Nc1nc2ccc(OC(F)(F)F)cc2s1,"inconclusive: 16.4 µM [cytotoxic, partial curve, poor fit]",–
N#Cc1cccc(NC(=O)CSc2ccc3c4c(cccc24)C(=O)c2ccccc2-3)c1,active: 20.6 µM,–
O=c1[nH]c(CSc2ccccc2)nc2c1oc1ccccc12,"inconclusive: 20.6 µM [cytotoxic, partial curve, poor fit]",–
O=C(C1CCCN(S(=O)(=O)Cc2ccccc2)C1)N1CCc2ccccc21 (stereo not drawn),"inconclusive: 14.6 µM [cytotoxic, single point]",–
O=C(OCC(=O)N1CCCC1)c1ccc(Cl)nc1,"inconclusive: 29.1 µM [rising, single point]",–
CN(C)CCCNc1nc2cc(-c3ccc4c(ccn4C)c3)sc2c(=O)n1C,inactive,–
CCOC(=O)[C@]12CCCC=C1N(Cc1ccccc1)C(=O)[C@H](CC(=O)NCC13CC4CC(CC(C4)C1)C3)C2,active: 20.6 µM,–
COc1cccc(-n2ccnc2SCC(=O)Nc2ccccc2F)c1,"inconclusive: 11.6 µM [cytotoxic, partial curve]",–
CCC(=O)N1CCN(c2nc(-c3ccc(Cl)cc3)cs2)CC1,"inconclusive: 29.1 µM [cytotoxic, single point]",–
CCCC(=O)NC(Nc1c(C)n(C)n(-c2ccccc2)c1=O)C(Cl)(Cl)Cl (stereo not drawn),"inconclusive: 0.259 µM [rising, full curve]",–
COc1cccc(C(=O)/C=C/Nc2cc(C)ccc2O)c1,"inconclusive: 18.4 µM [cytotoxic, single point]",–
COc1ccc(Cc2c(-c3ccc(Cl)cc3)nc3cc(C)c(Br)c(C)n23)c(C)c1,"inconclusive: 14.6 µM [cytotoxic, partial curve, poor fit]",–
COc1ccc(C(=O)NCC(C)(C)SCc2c(C)cc(C)cc2C)cc1,active: 18.4 µM,–
CSc1ccccc1NC(=O)C1=CC(c2ccc(C)cc2)=NS(=O)(=O)N1C,"inconclusive: 3.66 µM [cytotoxic, full curve]",–
CN(C)/C=N/c1ncc(C(=O)c2ccc(-c3ccccc3)cc2)s1,active: 11.6 µM,–
Cc1ccc(C(=O)Nc2ncn[nH]2)cc1,inactive,–
Cc1ccc(OCCOC(=O)c2cc(S(=O)(=O)N3CCCCC3)ccc2N2CCOCC2)cc1,active: 2.91 µM,–
COC(=O)C1=CN(c2ccc(F)cc2)C(N)=C(C#N)C1c1ccccc1 (stereo not drawn),"inconclusive: 20.6 µM [cytotoxic, single point]",–
COCCN(CCOC)C(=O)c1ccc(CSc2nc3ccccc3s2)cc1,"inconclusive: 6.51 µM [cytotoxic, partial curve]",–
O=C1CCN(Cc2ccc(O)cc2)CCN1[C@H](CO)c1ccccc1,inactive,–
Cc1ccn2c(=O)c(C(=O)NCCC3=CCCCC3)c(O)nc2c1,"inconclusive: 29.1 µM [cytotoxic, single point]",–
CC(C)(C)c1ccc(-c2nc(C#N)c(NCc3cccnc3)o2)cc1,active: 20.6 µM,–

SMILES,Potency,"activity change, negative = cytotoxicity"
S=C(NCc1ccccn1)NN=Cc1ccccn1,"inconclusive: 2.59 µM [cytotoxic, full curve, poor fit]",–
NC(=O)c1ccc(N2CCN(S(=O)(=O)c3ccccc3)CC2)c([N+](=O)[O-])c1,active: 9.2 µM,–
CCOCCOC(=O)C1=C(C)Nc2ccc(C)cc2S1,active: 13 µM,–
CN(C)CCCNc1nc(N)c([N+](=O)[O-])c(NCCO)n1,"inconclusive: 20.6 µM [rising, single point]",–
CCCCCn1c(=N)c(S(=O)(=O)c2ccc(Cl)cc2)cc2c(=O)n3cccc(C)c3nc21,active: 8.2 µM,–
CC(=O)c1ccccc1C(=O)N1CCCC(CCC(=O)N2CCN(c3ccccn3)CC2)C1 (stereo not drawn),inactive,–
CC(CC(=O)Nc1ccc2c(c1)c(=O)n(C)n2-c1ccc2ccccc2c1)C(F)(F)F (stereo not drawn),active: 5.8 µM,–
CCn1c(SCC(=O)Nc2nc3ccc(C)cc3s2)nc2c(c1=O)SC(C)C2 (stereo not drawn),inactive,–
Cc1cccc(CN2CCN(Cc3ccc(-n4cccn4)cc3)CC2CCO)n1 (stereo not drawn),"inconclusive: 29.1 µM [cytotoxic, single point]",–
N#Cc1c(NC(=O)c2cnccn2)sc2c1CCCC2,active: 16.4 µM,–
CCOc1ccc(C(=O)NNC(=O)C2CC(=O)N(c3ccc(C)cc3)C2)cc1 (stereo not drawn),inactive,–
CNS(=O)(=O)c1cc(OC)c(OC)cc1CC(=O)OC,inactive,–
COc1ccccc1OCc1nnc(SCC(=O)N2CCCCC2)n1-c1ccccc1,"inconclusive: 23.1 µM [cytotoxic, single point]",–
COc1ccc(C2c3c(-c4c(C)cc(C)cc4O)n[nH]c3C(=O)N2Cc2ccco2)cc1 (stereo not drawn),"inconclusive: 20.6 µM [cytotoxic, single point]",–
COc1ccc(C(=O)/C(C#N)=N/Nc2ccccc2[N+](=O)[O-])cc1,inactive,–
O=C(CS(=O)(=O)c1ccccc1)Nc1ccc(Br)cn1,active: 16.4 µM,–
Cc1ccc(CN2C(=O)C(O)(c3c[nH]c4ccccc34)c3cc(Cl)ccc32)cc1 (stereo not drawn),"inconclusive: 29.1 µM [cytotoxic, single point]",–
COc1cccc(-c2nc(CS(=O)(=O)CC(=O)NCc3ccc(C)cc3)c(C)o2)c1,inactive,–
CCOc1cc(-c2nc3c(c(CC)nn3-c3ccccc3)c3cc(OC)c(OC)cc23)ccc1O,inactive,–
CCc1nnc(NC(=O)c2nn(-c3ccccc3)nc2C)s1,"inconclusive: 32.6 µM [cytotoxic, partial curve, poor fit]",–
CCc1nc(SCC(=O)Nc2nnc(CC(C)C)s2)n[nH]1,inactive,–
CCOC(=O)c1c(-c2ccccc2)csc1NC(=O)/C(C#N)=C/c1ccc(O)c(OC)c1,inactive,–
C=CCOc1ccc(Br)cc1CNCCCN1CCOCC1,inactive,–
CCOC(=O)C(CC)Sc1nnc2c3cc(C)ccc3n(C)c2n1 (stereo not drawn),"inconclusive: 13 µM [cytotoxic, partial curve, poor fit]",–
COc1ccc(N(C)C(=O)c2cc3c(Cl)nc4ccccc4c3s2)cc1,inactive,–

SMILES,Potency,"activity change, negative = cytotoxicity"
CC(C)(C)n1[nH]c2c3c(ccc2c1=O)C(=O)c1ccccc1C3=O,"inconclusive: 7.31 µM [cytotoxic, partial curve]",–
CC1CCCN(S(=O)(=O)c2ccc(Br)s2)C1 (stereo not drawn),"inconclusive: 7.31 µM [cytotoxic, partial curve]",–
Nc1nonc1-n1nnc(C(=O)N/N=C/c2ccc(OCc3ccccc3F)cc2)c1CNc1ccccc1,"inconclusive: 8.2 µM [rising, partial curve]",–
Cc1ccc2c(c1)NC(c1cccnc1)=NC(c1ccc(F)cc1)=N2,inactive,–
CN(C)CCCOC(=O)N1c2ccccc2C=Cc2ccccc21,inactive,–
C[C@@H]1CN([C@H](C)CO)C(=O)CCCn2nncc2CO[C@@H]1CN(C)C(=O)Nc1cccc2ccccc12,"inconclusive: 29.1 µM [cytotoxic, single point]",–
CCOc1ccc2nc(NC(=O)c3ccc(C)o3)sc2c1,"inconclusive: 10.3 µM [cytotoxic, partial curve, poor fit]",–
CCNC(=S)N1CCNC(=O)C1CC(=O)OC (stereo not drawn),"inconclusive: 16.4 µM [cytotoxic, partial curve, poor fit]",–
CCOC(=O)C1CCN(C(=O)C2CCN(C3=NS(=O)(=O)C(c4ccc(C)cc4)=C3CC)CC2)CC1,inactive,–
O=C(c1ccccc1)N1CCN(c2ccc([N+](=O)[O-])c(NCC3CCCO3)c2)CC1 (stereo not drawn),"inconclusive: 2.59 µM [cytotoxic, partial curve, poor fit]",–
CCOC(=O)c1noc2ncnc(Nc3ccc(F)cc3F)c12,"inconclusive: 23.1 µM [rising, single point]",–
O=c1c(Cc2c(F)cccc2Cl)c(O)ccn1C1CCCCCC1,inactive,–
COc1cc(CCC(=O)Nc2c(C(=O)N3CCN(c4ccccc4OC)CC3)oc3ccccc23)on1,inactive,–
CNC(=O)COc1coc(CN2CCN(c3ccccc3)CC2)cc1=O,–,inconclusive: 37%
Cc1ccc(S(=O)(=O)N(CC(=O)N2CCCC2)C2CCCCC2)cc1,"inconclusive: 20.6 µM [cytotoxic, partial curve]",–
Cc1cc(N2CCN(C(c3ccccc3)c3ccccc3)CC2)n2ncnc2n1,"inconclusive: 14.6 µM [cytotoxic, partial curve]",–
COc1ccc(CCNC(=O)COC(=O)COc2ccc(C#N)cc2)cc1,"inconclusive: 29.1 µM [rising, single point]",–
C=CCN1C(=O)/C(=C\c2ccc(Cl)cc2)N=C1SCC(=O)NCCC,"inconclusive: 20.6 µM [rising, partial curve, poor fit]",–
CCN1CCCC1CNC(=O)C1c2ccccc2C(=O)N(CCOC)C1c1ccc(F)cc1 (stereo not drawn),"inconclusive: 29.1 µM [rising, single point]",–
COc1cccc(C(=O)NN2CCOCC2)c1,"inconclusive: 16.4 µM [rising, partial curve, poor fit]",–
Nc1ccc(Cc2ccccn2)cc1,inactive,–
CCOCCCNC(=O)C1CCN(S(=O)(=O)N2CCCCC2)CC1,"inconclusive: 2.91 µM [rising, partial curve]",–
CCOC(=O)c1ccccc1NC(=O)COC(=O)CCNS(=O)(=O)c1ccc(C)c(C)c1,"inconclusive: 29.1 µM [rising, single point]",–

# Looked up by structure from the list above:
SMILES,Potency,"activity change, negative = cytotoxicity"
CC1CCCN(S(=O)(=O)c2ccc(Br)s2)C1 (stereo not drawn),"inconclusive: 7.31 µM [cytotoxic, partial curve]",–
CNC(=O)COc1coc(CN2CCN(c3ccccc3)CC2)cc1=O,–,inconclusive: 37%
CCOC(=O)C1CCN(C(=O)C2CCN(C3=NS(=O)(=O)C(c4ccc(C)cc4)=C3CC)CC2)CC1,inactive,–

# 2 of the compounds above, with tabs:
SMILES	Potency	activity change, negative = cytotoxicity
CCOCCCNC(=O)C1CCN(S(=O)(=O)N2CCCCC2)CC1	inconclusive: 2.91 µM [rising, partial curve]	–
CCOC(=O)c1ccccc1NC(=O)COC(=O)CCNS(=O)(=O)c1ccc(C)c(C)c1	inconclusive: 29.1 µM [rising, single point]	–
